Source: the supplement of paper PMC6411743
± gives the standard deviation of the averaged measurements. Only a part is listed here, and it is no random draw. Most entries show no effect beyond the scatter of the controls.

Protein sequences, listed by entry. Tags and fused reporters are not part of them. Lines headed by an entry give the natural chain unless they say otherwise; changes in a name come on top.
UniProt Q8TEL6: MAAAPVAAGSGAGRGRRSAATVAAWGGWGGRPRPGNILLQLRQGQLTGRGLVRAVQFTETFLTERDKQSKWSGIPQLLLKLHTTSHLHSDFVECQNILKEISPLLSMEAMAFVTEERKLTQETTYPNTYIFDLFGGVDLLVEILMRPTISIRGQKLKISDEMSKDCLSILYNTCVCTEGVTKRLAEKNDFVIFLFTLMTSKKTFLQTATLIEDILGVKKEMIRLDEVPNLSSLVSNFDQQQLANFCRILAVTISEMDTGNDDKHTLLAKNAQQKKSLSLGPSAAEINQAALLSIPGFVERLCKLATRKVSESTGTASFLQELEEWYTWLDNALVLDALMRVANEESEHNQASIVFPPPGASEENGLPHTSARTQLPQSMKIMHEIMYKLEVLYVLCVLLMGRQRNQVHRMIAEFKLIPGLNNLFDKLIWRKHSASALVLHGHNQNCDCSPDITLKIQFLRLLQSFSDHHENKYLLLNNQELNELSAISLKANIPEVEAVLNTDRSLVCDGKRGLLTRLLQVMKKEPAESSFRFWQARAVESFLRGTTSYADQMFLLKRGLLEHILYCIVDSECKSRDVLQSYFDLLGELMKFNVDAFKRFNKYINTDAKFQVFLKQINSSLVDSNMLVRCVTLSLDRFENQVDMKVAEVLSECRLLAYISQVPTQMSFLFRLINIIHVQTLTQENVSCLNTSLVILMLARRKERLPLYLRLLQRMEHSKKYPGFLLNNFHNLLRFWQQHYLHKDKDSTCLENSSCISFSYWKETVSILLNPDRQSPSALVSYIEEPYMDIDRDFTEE
UniProt Q92542, whole entry: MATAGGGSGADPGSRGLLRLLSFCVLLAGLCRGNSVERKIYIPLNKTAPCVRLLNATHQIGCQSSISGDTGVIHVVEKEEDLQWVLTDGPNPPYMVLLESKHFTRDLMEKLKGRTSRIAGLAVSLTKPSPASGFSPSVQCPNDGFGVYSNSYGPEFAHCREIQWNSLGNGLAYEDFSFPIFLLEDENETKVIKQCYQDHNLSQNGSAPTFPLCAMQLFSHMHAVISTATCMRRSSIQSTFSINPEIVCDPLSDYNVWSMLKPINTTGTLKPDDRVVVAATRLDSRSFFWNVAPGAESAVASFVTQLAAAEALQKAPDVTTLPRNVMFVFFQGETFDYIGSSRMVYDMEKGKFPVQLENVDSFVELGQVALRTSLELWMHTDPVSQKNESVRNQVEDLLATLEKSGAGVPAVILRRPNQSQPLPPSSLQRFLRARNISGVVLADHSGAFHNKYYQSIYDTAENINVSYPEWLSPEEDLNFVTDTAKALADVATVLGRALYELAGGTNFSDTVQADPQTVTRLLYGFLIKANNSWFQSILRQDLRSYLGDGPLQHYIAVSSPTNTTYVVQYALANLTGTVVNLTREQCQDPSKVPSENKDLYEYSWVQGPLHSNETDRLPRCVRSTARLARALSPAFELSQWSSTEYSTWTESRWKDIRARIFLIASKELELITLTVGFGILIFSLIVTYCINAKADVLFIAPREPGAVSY
UniProt Q969E4: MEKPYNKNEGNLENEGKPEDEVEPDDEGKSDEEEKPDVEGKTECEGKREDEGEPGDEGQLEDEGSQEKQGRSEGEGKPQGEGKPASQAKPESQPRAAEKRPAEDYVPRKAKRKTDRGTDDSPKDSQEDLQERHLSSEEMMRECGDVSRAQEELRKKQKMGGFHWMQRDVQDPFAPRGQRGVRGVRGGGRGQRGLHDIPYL
UniProt Q8WTS6: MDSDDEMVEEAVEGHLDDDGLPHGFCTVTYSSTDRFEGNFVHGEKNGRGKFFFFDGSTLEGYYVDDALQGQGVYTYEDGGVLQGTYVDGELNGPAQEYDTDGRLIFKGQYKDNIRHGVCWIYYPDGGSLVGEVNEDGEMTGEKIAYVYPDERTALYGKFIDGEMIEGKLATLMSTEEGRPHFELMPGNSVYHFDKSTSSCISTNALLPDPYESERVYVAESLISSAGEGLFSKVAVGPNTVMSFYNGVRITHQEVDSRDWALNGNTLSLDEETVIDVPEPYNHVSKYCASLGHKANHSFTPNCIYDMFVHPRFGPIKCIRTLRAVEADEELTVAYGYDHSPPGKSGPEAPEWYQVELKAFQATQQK
UniProt Q92688: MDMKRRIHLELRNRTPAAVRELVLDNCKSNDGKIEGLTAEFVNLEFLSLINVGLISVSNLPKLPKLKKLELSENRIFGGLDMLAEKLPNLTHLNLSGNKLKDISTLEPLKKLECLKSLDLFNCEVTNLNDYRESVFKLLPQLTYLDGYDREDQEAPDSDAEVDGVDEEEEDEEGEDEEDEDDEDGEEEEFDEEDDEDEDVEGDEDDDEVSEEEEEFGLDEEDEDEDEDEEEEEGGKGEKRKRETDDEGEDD
UniProt Q8WVK2: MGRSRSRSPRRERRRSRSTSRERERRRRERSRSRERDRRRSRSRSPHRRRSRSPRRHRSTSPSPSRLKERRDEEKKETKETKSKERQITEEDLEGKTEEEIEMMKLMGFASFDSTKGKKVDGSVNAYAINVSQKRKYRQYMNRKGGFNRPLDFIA
UniProt Q92785, whole entry: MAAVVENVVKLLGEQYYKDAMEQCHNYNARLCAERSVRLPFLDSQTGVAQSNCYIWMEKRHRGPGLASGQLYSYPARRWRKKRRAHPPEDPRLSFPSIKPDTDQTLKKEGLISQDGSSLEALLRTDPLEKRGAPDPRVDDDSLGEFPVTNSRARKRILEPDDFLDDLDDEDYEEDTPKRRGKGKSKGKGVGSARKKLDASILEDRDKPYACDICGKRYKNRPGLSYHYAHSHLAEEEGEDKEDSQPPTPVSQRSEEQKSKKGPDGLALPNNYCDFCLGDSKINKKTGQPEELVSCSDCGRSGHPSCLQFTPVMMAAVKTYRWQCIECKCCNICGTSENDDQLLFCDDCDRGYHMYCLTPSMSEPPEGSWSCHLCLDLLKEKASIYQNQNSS
UniProt Q92499: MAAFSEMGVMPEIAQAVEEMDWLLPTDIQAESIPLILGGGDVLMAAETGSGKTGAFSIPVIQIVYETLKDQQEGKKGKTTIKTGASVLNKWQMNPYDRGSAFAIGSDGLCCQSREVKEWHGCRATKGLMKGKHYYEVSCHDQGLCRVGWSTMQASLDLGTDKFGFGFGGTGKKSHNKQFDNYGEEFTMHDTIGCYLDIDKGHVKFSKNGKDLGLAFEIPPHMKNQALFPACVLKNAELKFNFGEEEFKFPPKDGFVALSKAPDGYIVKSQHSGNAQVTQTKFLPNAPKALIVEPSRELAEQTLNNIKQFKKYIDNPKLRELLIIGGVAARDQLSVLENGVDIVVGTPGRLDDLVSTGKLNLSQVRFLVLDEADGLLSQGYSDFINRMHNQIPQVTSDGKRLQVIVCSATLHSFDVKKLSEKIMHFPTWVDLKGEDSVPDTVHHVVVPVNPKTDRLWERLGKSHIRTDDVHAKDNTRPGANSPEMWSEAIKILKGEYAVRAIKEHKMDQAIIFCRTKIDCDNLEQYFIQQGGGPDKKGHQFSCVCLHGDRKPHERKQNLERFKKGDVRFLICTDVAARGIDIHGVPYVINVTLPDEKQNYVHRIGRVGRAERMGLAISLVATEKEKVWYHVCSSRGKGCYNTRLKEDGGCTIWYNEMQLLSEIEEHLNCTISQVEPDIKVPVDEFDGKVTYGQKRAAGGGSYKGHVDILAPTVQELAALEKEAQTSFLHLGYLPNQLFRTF
UniProt Q92828: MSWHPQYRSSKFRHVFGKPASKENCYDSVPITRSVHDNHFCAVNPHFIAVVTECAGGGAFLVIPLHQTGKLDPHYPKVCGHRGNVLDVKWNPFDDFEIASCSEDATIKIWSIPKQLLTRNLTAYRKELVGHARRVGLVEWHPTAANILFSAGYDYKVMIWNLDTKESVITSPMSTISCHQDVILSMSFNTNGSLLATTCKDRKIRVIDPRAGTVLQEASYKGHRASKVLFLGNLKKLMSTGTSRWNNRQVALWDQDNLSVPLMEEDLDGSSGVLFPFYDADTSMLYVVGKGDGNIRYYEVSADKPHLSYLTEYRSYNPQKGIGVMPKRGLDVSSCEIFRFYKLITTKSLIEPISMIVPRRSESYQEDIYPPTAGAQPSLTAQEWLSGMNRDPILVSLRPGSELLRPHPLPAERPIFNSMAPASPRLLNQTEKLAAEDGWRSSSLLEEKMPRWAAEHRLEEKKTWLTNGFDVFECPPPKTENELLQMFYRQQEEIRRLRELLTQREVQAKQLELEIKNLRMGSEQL
UniProt Q92995: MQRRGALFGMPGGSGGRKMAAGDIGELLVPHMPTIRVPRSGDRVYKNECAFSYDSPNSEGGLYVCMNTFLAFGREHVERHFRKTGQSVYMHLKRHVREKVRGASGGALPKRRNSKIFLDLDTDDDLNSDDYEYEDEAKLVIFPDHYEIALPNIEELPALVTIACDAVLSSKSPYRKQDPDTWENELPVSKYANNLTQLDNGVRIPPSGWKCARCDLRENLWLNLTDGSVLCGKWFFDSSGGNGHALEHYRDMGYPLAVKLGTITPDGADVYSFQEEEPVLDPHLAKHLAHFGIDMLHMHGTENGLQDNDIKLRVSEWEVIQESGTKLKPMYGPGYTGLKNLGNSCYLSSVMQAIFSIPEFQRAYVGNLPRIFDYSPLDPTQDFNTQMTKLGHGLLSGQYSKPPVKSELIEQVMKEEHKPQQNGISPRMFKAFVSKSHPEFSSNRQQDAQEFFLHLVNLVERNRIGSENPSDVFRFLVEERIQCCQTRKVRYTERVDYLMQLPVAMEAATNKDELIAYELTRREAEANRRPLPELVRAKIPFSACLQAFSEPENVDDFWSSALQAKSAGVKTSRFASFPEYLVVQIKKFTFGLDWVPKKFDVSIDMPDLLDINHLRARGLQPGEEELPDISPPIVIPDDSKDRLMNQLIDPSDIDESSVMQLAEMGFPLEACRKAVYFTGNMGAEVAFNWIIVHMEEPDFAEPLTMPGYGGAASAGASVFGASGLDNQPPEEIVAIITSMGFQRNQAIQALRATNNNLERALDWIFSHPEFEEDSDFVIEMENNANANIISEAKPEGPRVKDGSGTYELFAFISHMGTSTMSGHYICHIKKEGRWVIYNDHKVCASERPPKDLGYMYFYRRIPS
UniProt Q8WVM0: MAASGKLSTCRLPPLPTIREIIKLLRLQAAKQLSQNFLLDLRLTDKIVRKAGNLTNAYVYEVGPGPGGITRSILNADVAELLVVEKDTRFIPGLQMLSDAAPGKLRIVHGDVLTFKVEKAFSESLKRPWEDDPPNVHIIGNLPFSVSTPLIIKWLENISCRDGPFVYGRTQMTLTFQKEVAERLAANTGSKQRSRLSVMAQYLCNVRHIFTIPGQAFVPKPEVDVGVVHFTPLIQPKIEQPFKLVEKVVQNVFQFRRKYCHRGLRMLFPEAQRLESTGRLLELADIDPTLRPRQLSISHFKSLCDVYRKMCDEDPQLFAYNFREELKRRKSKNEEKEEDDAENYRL
UniProt Q8TD16, whole entry: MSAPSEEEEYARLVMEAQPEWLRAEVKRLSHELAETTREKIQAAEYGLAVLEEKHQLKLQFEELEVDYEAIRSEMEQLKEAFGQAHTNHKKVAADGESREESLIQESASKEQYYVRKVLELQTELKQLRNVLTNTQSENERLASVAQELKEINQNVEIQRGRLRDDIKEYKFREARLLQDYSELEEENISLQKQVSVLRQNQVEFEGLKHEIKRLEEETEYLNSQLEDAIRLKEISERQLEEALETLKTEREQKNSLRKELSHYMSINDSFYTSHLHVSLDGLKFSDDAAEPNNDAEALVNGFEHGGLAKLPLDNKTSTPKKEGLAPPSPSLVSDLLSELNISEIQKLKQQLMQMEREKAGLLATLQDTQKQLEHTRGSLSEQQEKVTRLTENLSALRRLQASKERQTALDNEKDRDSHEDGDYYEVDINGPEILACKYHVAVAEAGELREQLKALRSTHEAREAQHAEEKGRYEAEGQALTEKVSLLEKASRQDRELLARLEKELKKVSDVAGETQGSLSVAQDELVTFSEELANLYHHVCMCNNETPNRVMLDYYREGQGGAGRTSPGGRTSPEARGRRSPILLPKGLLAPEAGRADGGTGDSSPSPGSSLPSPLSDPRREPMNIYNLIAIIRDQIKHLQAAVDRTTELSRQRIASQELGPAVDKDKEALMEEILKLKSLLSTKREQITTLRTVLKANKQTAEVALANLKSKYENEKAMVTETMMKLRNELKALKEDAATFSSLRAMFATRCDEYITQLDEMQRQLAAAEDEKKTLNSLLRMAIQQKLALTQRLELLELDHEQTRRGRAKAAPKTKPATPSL
UniProt Q8WZA0: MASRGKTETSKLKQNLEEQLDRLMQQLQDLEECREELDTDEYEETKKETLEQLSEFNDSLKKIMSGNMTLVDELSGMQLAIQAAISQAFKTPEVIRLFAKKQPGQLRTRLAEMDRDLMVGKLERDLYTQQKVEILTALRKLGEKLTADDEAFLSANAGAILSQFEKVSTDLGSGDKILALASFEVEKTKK

These targets were tested with Nc1ncnc2c1ncn2[C@@H]1O[C@H](COP(=O)(O)OP(=O)(O)OP(=O)(O)O)[C@@H](O)[C@H]1O [adenosine triphosphate] (assay: NP40-soluble protein abundance relative to vehicle (solubility fold change) (ratio); higher = more soluble protein in presence of ATP). Conditions: concentration: 0.1mM.
In short: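 Eight concentrations, 0.1 to 10 mM, were tested on Jurkat crude lysate for 10 min at room temperature and then 3 min at 37 °C, in three independent experiments. The lysate was solubilised with 0.8% NP40 and benzonase, ultracentrifuged, and the supernatant TMT-labelled for LC-MS/MS. Each value is the fold change against the detergent-processed vehicle in its own replicate, from vsn-normalised intensities.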

Target	NP40-soluble protein abundance
UniProt Q8TEL6 and related entries	1.01 ± 0.093
UBLCP1 (UniProt Q8WVY7)	1.08 ± 0.079
UniProt Q92552 and related entries	0.949 ± 0.06
MYST3 (UniProt Q92794)	1.04 ± 0.026
UniProt Q92997 and related entries	0.984 ± 0.063
UniProt Q92542 and related entries	0.947 ± 0.028
SPRYD4 (UniProt Q8WW59)	1.07 ± 0.12
UniProt Q8TEP8-3	0.946 ± 0.035
UniProt Q8TD26 and related entries	1.06 ± 0.037
UniProt Q969E4	1.04 ± 0.044
UniProt Q969G3 and related entries	0.919 ± 0.11
SETD7 (UniProt Q8WTS6)	1.04 ± 0.034
PI4K2B (UniProt Q8TCG2)	1.03 ± 0.091
UniProt Q92688 and related entries	0.836 ± 0.095
ZKSCAN4 (UniProt Q969J2)	0.995 ± 0.068
PPIL4 (UniProt Q8WUA2)	0.975 ± 0.04
UniProt Q8WVK2 and related entries	1.09 ± 0.11
UniProt Q92581-3|Q92581-2	1.06 ± 0.096
DPF2 (UniProt Q92785)	0.982 ± 0.045

Target	NP40-soluble protein abundance
DDB2 (UniProt Q92466)	0.985 ± 0.034
DDX1 (UniProt Q92499)	1.05 ± 0.063
UniProt Q8TDR0 and related entries	1.02 ± 0.047
CORO2A (UniProt Q92828)	1.11 ± 0.19
SYAP1 (UniProt Q96A49)	0.962 ± 0.029
UniProt Q92900-2|Q92900	1.02 ± 0.031
USP13 (UniProt Q92995)	1.02 ± 0.064
BCL7C (UniProt Q8WUZ0)	0.995 ± 0.069
TFB1M (UniProt Q8WVM0)	0.997 ± 0.047
UniProt Q8TDH9	1 ± 0.11
UniProt Q92636 and related entries	1.1 ± 0.062
UniProt Q8TBN0 and related entries	0.924 ± 0.11
UniProt Q8TD16-2|Q8TD16	0.9954 ± 0.0018
PHIP (UniProt Q8WWQ0)	1.02 ± 0.066
ERCC4 (UniProt Q92889)	1.04 ± 0.072
FAM3C (UniProt Q92520)	0.9863 ± 0.0047
BRI3BP (UniProt Q8WY22)	0.907 ± 0.056
UniProt Q969S9 and related entries	1.06 ± 0.056
UniProt Q8WZA0 and related entries	0.883 ± 0.11

Same assay, conditions: concentration: 0.5mM

Target	NP40-soluble protein abundance
UniProt Q8TEL6 and related entries	1.11 ± 0.097
UBLCP1 (UniProt Q8WVY7)	0.989 ± 0.054
UniProt Q92552 and related entries	0.988 ± 0.092
MYST3 (UniProt Q92794)	1.03 ± 0.078
UniProt Q92997 and related entries	0.979 ± 0.019
UniProt Q92542 and related entries	0.902 ± 0.083
SPRYD4 (UniProt Q8WW59)	1.01 ± 0.05
UniProt Q8TEP8-3	0.946 ± 0.068
UniProt Q8TD26 and related entries	1.11 ± 0.071
UniProt Q969E4	0.952 ± 0.14
UniProt Q969G3 and related entries	0.941 ± 0.11
SETD7 (UniProt Q8WTS6)	1.02 ± 0.047
PI4K2B (UniProt Q8TCG2)	0.955 ± 0.055
UniProt Q92688 and related entries	0.782 ± 0.12
ZKSCAN4 (UniProt Q969J2)	0.897 ± 0.07
PPIL4 (UniProt Q8WUA2)	1 ± 0.065
UniProt Q8WVK2 and related entries	1.17 ± 0.055
UniProt Q92581-3|Q92581-2	1.03 ± 0.018
DPF2 (UniProt Q92785)	1.02 ± 0.077

Target	NP40-soluble protein abundance
DDB2 (UniProt Q92466)	1 ± 0.044
DDX1 (UniProt Q92499)	1.04 ± 0.069
UniProt Q8TDR0 and related entries	1 ± 0.053
CORO2A (UniProt Q92828)	0.999 ± 0.018
SYAP1 (UniProt Q96A49)	0.983 ± 0.022
UniProt Q92900-2|Q92900	1.027 ± 0.0081
USP13 (UniProt Q92995)	1.02 ± 0.048
BCL7C (UniProt Q8WUZ0)	0.993 ± 0.051
TFB1M (UniProt Q8WVM0)	1.02 ± 0.032
UniProt Q8TDH9	0.842 ± 0.18
UniProt Q92636 and related entries	1.07 ± 0.08
UniProt Q8TBN0 and related entries	0.903 ± 0.022
UniProt Q8TD16-2|Q8TD16	1 ± 0.012
PHIP (UniProt Q8WWQ0)	1.1 ± 0.02
ERCC4 (UniProt Q92889)	1.04 ± 0.077
FAM3C (UniProt Q92520)	0.952 ± 0.021
BRI3BP (UniProt Q8WY22)	0.982 ± 0.011
UniProt Q969S9 and related entries	1.05 ± 0.068
UniProt Q8WZA0 and related entries	0.855 ± 0.14
